# Data: the supplement of paper PMC10849652
# The chains behind the UniProt entries cited, without tags or fusion partners. Where a name states a change or a piece, a line headed by the entry shows the natural chain unless it says otherwise.
# UniProt O75882: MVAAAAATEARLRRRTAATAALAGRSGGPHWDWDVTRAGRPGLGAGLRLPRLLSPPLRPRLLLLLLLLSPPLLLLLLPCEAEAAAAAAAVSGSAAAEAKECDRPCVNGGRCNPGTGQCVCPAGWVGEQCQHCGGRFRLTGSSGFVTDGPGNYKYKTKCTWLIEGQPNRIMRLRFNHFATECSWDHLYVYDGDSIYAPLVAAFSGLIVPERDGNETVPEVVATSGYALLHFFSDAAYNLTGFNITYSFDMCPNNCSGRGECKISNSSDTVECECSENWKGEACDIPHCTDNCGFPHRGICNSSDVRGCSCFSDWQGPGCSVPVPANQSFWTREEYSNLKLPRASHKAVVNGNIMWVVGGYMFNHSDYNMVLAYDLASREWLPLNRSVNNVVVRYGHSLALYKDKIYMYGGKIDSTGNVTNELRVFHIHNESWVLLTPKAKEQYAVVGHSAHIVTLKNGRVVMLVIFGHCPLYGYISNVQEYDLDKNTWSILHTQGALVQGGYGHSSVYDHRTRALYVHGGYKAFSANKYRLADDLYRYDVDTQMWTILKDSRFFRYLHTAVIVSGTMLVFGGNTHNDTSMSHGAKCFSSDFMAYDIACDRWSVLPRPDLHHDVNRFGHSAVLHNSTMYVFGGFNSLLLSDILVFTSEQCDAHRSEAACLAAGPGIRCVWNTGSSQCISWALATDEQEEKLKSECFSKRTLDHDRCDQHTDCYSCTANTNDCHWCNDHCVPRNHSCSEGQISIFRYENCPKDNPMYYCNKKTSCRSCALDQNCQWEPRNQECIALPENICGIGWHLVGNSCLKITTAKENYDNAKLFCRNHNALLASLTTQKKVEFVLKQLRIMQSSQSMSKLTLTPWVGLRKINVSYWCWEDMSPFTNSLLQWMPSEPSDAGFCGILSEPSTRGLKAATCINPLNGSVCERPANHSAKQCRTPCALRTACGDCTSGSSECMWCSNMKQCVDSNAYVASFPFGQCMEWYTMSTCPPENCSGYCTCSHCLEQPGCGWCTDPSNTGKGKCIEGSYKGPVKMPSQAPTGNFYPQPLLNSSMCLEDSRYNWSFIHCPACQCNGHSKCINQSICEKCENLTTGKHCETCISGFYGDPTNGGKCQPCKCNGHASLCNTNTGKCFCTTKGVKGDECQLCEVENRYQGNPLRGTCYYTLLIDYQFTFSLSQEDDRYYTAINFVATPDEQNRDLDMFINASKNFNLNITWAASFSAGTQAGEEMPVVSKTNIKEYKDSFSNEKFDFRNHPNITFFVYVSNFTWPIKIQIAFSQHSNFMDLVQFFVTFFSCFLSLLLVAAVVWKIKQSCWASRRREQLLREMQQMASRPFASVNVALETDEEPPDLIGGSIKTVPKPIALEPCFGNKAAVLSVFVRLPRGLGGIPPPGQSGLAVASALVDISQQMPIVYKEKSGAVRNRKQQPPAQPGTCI
# UniProt P36542: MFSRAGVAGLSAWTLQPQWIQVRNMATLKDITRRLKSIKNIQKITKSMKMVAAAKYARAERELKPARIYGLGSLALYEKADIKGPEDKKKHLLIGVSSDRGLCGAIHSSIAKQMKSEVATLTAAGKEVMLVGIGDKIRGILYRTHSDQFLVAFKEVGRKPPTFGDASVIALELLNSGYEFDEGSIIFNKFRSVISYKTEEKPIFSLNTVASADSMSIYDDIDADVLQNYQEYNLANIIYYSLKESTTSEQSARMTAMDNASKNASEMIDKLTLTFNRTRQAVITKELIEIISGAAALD
# UniProt Q9NVI7: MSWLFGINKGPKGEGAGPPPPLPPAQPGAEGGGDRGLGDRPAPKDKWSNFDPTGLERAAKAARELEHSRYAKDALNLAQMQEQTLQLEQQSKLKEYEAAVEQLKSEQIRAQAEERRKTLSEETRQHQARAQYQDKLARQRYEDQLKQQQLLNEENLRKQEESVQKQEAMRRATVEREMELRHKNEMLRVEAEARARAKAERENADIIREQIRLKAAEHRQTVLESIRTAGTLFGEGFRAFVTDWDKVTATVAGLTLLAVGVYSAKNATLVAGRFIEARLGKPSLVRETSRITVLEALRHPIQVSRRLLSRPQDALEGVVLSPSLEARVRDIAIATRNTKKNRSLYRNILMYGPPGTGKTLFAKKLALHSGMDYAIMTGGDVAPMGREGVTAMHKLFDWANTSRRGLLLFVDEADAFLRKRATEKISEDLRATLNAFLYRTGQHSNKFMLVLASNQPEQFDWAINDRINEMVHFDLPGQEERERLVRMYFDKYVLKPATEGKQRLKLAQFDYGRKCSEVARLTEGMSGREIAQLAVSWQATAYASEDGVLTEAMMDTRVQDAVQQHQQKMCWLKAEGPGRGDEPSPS
# UniProt Q93050, whole entry, looked up: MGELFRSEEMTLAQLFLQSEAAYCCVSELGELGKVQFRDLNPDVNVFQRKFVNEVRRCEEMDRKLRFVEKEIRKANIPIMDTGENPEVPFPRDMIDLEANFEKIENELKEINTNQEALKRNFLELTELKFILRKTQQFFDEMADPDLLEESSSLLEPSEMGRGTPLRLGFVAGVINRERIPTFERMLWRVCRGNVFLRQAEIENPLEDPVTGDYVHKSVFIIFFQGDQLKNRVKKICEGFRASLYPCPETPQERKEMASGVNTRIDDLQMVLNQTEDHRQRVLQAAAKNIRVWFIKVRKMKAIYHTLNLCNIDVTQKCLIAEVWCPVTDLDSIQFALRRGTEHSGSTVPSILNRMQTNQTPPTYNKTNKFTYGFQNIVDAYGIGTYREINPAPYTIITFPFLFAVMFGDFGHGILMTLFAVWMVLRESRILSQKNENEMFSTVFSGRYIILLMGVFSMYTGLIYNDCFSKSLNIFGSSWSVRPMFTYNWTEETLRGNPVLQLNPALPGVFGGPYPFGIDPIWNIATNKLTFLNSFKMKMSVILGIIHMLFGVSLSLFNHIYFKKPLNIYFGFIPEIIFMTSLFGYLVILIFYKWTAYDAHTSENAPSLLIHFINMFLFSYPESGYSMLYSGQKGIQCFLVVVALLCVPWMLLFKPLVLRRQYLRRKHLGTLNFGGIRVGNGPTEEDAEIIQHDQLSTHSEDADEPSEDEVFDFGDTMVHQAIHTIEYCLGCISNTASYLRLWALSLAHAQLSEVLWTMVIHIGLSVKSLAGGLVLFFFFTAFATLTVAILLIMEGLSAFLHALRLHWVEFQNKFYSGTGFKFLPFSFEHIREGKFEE
# UniProt O94817, whole entry, looked up: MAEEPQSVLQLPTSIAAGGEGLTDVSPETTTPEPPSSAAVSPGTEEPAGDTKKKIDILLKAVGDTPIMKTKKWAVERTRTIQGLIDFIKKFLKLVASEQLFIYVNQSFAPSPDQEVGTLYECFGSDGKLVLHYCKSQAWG
# UniProt B2RBV5: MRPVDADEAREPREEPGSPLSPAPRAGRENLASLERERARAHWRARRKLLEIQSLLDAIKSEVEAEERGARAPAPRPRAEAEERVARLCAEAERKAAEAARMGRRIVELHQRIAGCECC
# UniProt P21281, whole entry, looked up: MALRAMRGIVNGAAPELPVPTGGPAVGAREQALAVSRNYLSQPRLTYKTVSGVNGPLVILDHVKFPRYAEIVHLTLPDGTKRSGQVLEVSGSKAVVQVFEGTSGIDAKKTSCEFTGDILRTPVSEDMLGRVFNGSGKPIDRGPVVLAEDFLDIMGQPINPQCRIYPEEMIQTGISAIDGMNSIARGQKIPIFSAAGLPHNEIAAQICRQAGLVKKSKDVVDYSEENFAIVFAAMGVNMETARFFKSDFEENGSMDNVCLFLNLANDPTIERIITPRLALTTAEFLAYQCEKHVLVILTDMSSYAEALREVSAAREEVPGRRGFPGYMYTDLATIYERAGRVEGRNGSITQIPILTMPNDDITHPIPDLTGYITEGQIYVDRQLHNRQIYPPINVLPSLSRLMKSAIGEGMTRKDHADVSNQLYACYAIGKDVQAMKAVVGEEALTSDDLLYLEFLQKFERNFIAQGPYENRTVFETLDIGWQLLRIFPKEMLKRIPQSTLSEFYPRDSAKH
# UniProt Q2TAZ0: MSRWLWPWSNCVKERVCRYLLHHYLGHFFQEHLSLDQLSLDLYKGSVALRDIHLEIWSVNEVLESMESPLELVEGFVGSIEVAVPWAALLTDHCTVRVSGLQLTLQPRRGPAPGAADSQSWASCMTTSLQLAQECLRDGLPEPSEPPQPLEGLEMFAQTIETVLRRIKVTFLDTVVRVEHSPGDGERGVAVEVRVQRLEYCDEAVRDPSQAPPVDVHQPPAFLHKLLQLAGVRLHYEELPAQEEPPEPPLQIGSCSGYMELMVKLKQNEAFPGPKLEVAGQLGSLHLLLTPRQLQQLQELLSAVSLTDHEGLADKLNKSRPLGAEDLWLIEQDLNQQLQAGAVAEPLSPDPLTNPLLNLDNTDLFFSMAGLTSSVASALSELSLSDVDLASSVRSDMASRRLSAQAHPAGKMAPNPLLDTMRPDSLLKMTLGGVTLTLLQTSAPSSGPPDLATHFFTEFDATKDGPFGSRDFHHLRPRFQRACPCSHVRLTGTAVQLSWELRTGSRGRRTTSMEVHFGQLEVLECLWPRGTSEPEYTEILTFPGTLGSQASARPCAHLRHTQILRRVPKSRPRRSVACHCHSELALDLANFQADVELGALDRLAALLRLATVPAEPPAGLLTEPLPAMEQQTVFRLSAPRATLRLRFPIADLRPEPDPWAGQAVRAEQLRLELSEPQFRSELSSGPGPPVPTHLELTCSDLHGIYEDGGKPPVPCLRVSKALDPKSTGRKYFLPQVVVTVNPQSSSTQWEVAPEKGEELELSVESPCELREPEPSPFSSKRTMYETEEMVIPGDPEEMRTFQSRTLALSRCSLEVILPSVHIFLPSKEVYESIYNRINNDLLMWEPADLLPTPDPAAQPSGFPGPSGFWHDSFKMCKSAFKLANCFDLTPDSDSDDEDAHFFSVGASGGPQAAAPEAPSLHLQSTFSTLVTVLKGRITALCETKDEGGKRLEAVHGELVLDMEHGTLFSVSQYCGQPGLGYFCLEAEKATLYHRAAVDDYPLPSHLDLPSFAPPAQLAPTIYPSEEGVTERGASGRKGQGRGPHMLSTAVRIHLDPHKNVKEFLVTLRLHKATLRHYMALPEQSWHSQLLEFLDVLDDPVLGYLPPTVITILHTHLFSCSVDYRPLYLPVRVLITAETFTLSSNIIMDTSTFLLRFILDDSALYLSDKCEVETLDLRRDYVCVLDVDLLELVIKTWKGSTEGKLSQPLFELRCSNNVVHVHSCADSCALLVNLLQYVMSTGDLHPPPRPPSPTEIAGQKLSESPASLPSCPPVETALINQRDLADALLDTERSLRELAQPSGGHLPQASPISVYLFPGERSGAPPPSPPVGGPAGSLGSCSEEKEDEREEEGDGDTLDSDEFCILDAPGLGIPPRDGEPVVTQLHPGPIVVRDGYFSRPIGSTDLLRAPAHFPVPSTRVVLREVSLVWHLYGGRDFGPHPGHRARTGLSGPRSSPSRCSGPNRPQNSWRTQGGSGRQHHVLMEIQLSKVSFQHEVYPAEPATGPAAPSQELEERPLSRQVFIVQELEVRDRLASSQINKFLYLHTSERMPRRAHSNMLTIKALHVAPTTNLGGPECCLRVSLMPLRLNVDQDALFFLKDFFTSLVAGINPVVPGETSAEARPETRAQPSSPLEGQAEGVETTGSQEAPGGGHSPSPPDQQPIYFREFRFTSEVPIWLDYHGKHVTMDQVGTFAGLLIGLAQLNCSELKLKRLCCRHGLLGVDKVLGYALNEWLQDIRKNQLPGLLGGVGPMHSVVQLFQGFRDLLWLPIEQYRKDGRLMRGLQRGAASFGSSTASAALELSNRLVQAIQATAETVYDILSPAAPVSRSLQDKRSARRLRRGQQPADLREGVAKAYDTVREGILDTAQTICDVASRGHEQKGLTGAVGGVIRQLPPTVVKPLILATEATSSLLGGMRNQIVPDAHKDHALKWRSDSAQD
# UniProt Q9UBL3, whole entry, looked up: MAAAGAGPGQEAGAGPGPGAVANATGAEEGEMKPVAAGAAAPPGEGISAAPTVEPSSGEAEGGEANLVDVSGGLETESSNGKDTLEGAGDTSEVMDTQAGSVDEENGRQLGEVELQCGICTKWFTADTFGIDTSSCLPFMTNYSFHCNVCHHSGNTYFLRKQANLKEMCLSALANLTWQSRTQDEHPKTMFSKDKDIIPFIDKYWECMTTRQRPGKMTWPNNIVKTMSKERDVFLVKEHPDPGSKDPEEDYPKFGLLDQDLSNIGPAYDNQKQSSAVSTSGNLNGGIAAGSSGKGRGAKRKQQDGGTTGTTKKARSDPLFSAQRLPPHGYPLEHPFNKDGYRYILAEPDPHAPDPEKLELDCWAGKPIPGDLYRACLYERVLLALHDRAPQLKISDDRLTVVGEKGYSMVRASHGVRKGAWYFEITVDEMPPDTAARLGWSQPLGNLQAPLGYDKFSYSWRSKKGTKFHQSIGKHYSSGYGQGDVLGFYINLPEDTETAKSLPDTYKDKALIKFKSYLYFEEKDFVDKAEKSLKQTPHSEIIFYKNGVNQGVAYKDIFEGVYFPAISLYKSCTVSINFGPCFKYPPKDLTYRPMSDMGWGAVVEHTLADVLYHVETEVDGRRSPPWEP
# The list shows a part of the results.
# Compound: C1=CC=C(C=C1)[C@H](COC2=CC3=C(C=C2)NC(=O)N3)NC(=O)C4=CC=CN(C4=O)CC5=CC(=C(C=C5)F)F
# Assay: log2 fold change, soluble protein after heating vs DMSO (PISA); higher = thermal stabilisation; K562 lysate, 10 uM; active = over 0.2 and 3.5 SD of the protein, either way, in both replicates (recomputed)
# How it was run: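 K562 pellets were dounce-homogenised in PBS pH 7.4 with 1 mM MgCl2, and the crude extract at 1 mg/mL protein was treated with 10 μM compound for 30 min. Aliquots were heated for 3 min across 48°C-58°C, pooled, and brought to 0.5% NP-40 at 4°C; soluble protein was the supernatant after 21,000xg for 90 min. Soluble protein was quantified by TMTpro 16plex LC-MS/MS with channel sums equalised, and reported as log2 fold change in thermal stability against DMSO controls, with values from duplicates.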
row,Target,log2 fold change
1,ATRN (UniProt O75882),inactive: -0.059
2,ATRX (UniProt P46100),inactive: -0.035
3,ATP5F1C isoform 2 (UniProt P36542),inactive: -0.041
4,ATAD3A (UniProt Q9NVI7),inactive: 0.155
5,ATP6V0A1 isoform 3 (UniProt Q93050),inactive: 0.05
6,ATG12 (UniProt O94817),inactive: -0.098
7,NA (UniProt B2RBV5),inactive: -0.05
8,ATXN2L (UniProt Q8WWM7),inactive: -0.032
9,ATG16L1 (UniProt Q676U5),inactive: 0.007
10,ASNA1 (UniProt O43681),inactive: 0.004
11,ATP1A1 (UniProt P05023),inactive: 0.029
12,ATP5F1B (UniProt F8W079),inactive: 0.005
13,ATRIP (UniProt Q8WXE1),inactive: -0.042
14,ATF7IP isoform 4 (UniProt Q6VMQ6),inactive: 0.051
15,ATAD2B (UniProt Q9ULI0),inactive: 0.169
16,ATP6V1B2 (UniProt P21281),inactive: 0.054
17,ATG14 (UniProt Q6ZNE5),inactive: -0.109
18,AZI2 (UniProt Q9H6S1),inactive: 0.008
19,ATXN2 (UniProt Q99700),inactive: 0.013
20,ATG2A (UniProt Q2TAZ0),inactive: -0.016
21,ASH2L (UniProt Q9UBL3),inactive: 0.009
22,ATXN2L isoform 3 (UniProt Q8WWM7),inactive: 0.032
23,ATL3 (UniProt Q6DD88),inactive: 0

# A different layout for some results above.
row | Target | log2 fold change
15 | ATAD2B (UniProt Q9ULI0) | inactive: 0.169
16 | ATP6V1B2 (UniProt P21281) | inactive: 0.054
